The target of the experiment is T1, Myc‐RNF125 (UniProt Q96EQ8).
T1 sequence: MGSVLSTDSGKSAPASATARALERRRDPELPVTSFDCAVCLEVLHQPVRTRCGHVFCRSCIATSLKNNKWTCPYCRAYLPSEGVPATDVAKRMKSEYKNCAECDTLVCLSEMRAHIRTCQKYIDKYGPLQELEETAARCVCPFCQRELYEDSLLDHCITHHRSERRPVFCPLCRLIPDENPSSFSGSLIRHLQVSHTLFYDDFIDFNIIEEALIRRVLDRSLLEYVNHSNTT
Briefly: co-IP; anti-Myc immunoprecipitation from lysates of 293T cells transfected with Flag-RIG-1, Myc-RNF125 and circREEP3.

These are yes or no findings as the source states them, for the method shown. In cells and extracts the contact can be indirect. Some binding calls cover weakened binding; strength is not graded here. Where a sequence is shown, tags or fusion partners need not be part of it.

B1: Flag‐RIG‐1 (protein, UniProt O95786 1-925)
chain: MTTEQRRSLQAFQDYIRKTLDPTYILSYMAPWFREEEVQYIQAEKNNKGPMEAATLFLKFLLELQEEGWFRGFLDALDHAGYSGLYEAIESWDFKKIEKLEEYRLLLKRLQPEFKTRIIPTDIISDLSECLINQECEEILQICSTKGMMAGAEKLVECLLRSDKENWPKTLKLALEKERNKFSELWIVEKGIKDVETEDLEDKMETSDIQIFYQEDPECQNLSENSCPPSEVSDTNLYSPFKPRNYQLELALPAMKGKNTIICAPTGCGKTFVSLLICEHHLKKFPQGQKGKVVFFANQIPVYEQQKSVFSKYFERHGYRVTGISGATAENVPVEQIVENNDIIILTPQILVNNLKKGTIPSLSIFTLMIFDECHNTSKQHPYNMIMFNYLDQKLGGSSGPLPQVIGLTASVGVGDAKNTDEALDYICKLCASLDASVIATVKHNLEELEQVVYKPQKFFRKVESRISDKFKYIIAQLMRDTESLAKRICKDLENLSQIQNREFGTQKYEQWIVTVQKACMVFQMPDKDEESRICKALFLYTSHLRKYNDALIISEHARMKDALDYLKDFFSNVRAAGFDEIEQDLTQRFEEKLQELESVSRDPSNENPKLEDLCFILQEEYHLNPETITILFVKTRALVDALKNWIEGNPKLSFLKPGILTGRGKTNQNTGMTLPAQKCILDAFKASGDHNILIATSVADEGIDIAQCNLVILYEYVGNVIKMIQTRGRGRARGSKCFLLTSNAGVIEKEQINMYKEKMMNDSILRLQTWDEAVFREKILHIQTHEKFIRDSQEKPKPVPDKENKKLLCRKCKALACYTADVRVIEECHYTVLGDAFKECFVSRPHPKPKQFSSFEKRAKIFCARQNCSHDWGIHVKYKTFEIPVIKIESFVVEDIATGVQTLYSKWKDFHFEKIPFDPAEMSK
B1: the binding entry is “binds”.

These data come from paper PMC9069384.
